Measured values published in patent US20230374088A1.
These are yes or no findings as the source states them, for the method shown. In cells and extracts the contact can be indirect. Some entries that bind do so weakly or less than the wild type. Where a sequence is shown, tags or fusion partners need not be part of it.

Chains of the proteins cited; added tags and fusions are not shown. Residues count along the entry.
UniProt P10070, residues 1-594: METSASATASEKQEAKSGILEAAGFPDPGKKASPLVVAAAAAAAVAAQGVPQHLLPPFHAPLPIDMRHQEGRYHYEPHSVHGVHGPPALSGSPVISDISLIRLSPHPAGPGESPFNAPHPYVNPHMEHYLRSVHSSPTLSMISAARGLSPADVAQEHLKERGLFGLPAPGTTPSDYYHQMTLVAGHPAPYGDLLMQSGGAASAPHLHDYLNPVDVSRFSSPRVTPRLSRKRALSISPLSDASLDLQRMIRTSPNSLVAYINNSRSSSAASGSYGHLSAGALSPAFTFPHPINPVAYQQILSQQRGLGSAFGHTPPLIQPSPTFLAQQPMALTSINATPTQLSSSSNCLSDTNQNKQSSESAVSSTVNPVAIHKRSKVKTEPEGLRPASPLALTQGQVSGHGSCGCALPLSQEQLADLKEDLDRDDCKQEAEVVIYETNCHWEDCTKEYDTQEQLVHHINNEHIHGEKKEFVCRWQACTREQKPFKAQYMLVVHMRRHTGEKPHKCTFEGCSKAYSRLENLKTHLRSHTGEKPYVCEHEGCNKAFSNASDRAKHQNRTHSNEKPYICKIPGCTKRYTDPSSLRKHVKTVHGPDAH

Target: c-Myc-Gli2 (1-594aa) (human) (UniProt P10070)
Test: pull-down: co-transfection in Expi293F cells, IP with anti-FLAG magnetic beads, IB anti-c-Myc [panel A]

- binding: binds
B1: iii) 362-600 (FLAG-Kif7) (protein, not shown: small tags and cut ends)
chain: ERPPEETASGARGPPRHRSETRIIHRGRRAPGPATASAAAAMRLGAECARYRACTDAAYSLLRELQAEPGLPGAAARKVRDWLCAVEGERSALSSASGPDSGIESASVEDQAAQGAGGRKEDEGAQQLLTLQNQVARLEEENRDFLAALEDAMEQYKLQSDRLREQQEEMVELRLRLELVRPGWGGPRLLNGLPPGSFVPRPHTAPLGGAHAHVLGMVPPACLPGDEVGSEQRGEQVTN
